Source: patent US6514686B2, “Method and composition for modulating amyloidosis” (The University of British Columbia, priority 1997, dated 2003)
At least one structure is not confirmed: it was looked up by name or label, or the drawing left a doubt.

What was measured:
[1] = test system: APPs secretion in wild-type PC12 cells; assay: APPs secretion from wild-type PC12 cells, fifteen minute exposure; format: cell-based
Source text: Phorbol 12-myristate 13-acetate (PMA) was purchased from LC Service Corp., Woburn, Mass. All other materials were obtained as previously described in Example 1. Wild-type PC12 cells were purchased from the American Type Tissue Culture Collection # CRL-1721 and grown in DMEM with 5% FBS fetal bovine serum and 10% horse serum (GIBCO).
PC12 cells grown to confluence were pretreated for twelve hours in DMEM supplemented with charcoal-stripped calf serum (SIGMA) as described above. After pretreatment, cells were trypsinized, resuspended, and counted as described above. 10 mls each of 1.0×10^6 cells/ml PC12 cells were aliquoted into 15 ml conical tubes containing the appropriate treatment group. PMA was used as a positive control as previous experiments had shown that such treatment increases APPs release (Buxbaum, J. D. et al., “Processing of Alzheimer β/A4 amyloid precursor protein: Modulation by agents that regulate protein phosphorylation”, Proc. Natl. Acad. Sci. USA 87:6003-6006 (1990); Caporaso, G. L. et al., “Protein phosphorylation regulates secretion of Alzheimer β/A4 amyloid precursor protein”, Proc. Natl. Acad. Sci. USA 89:3055-3059 (1992); Mills, J. and P. B. Reiner, “Phorbol esters but not the cholinergic agonists oxotremorine-M and carbachol increase release of the amyloid precursor protein in cultured rat cortical neurons”, J. Neurochem. 67:1511-1518 (1996), the teachings of which are hereby incorporated by reference). The final percentage of DMSO in all treatment groups was normalized to 0.01% (v/v).
Treatment groups were as follows: a) Control; b) PMA (0.1 μM); c) RU-486 (0.1 μM). The concentration of (0.1 μM) RU-486 was chosen because it was near the EC50 mark (FIG. 4). 1.0 ml of each treatment group was pipetted into 1.5 eppendorf tubes and incubated at 37° C. in a […] incubator for fifteen minutes. Harvesting and concentration of APPs were performed as described in Example 1. Protein band separation on SDS-PAGE, visualization of bands, and quantification of APPs were also performed as previously described.
Materials and methods utilized were as outlined above. […]

[2] = test system: APPs secretion in GSrasDN1 PC12 cells; assay: APPs secretion from GSrasDN1 PC12 cells (22C11 western blot, densitometry); format: cell-based
Source text: The GSrasDN1 PC12 subline (Dr. Simon Halegous (State University of New York at Stony Brook)) expressing the dominant inhibitory mutant ras gene, p21^N17 under the control of a dexamethasone-inducible MMTV promoter (mouse mammary tumor virus), obtained as a gift from Dr. Simon Halegoua, (Kremer et al., J. Cell Biol. 115(3):809-819 (1991)) and grown in Dulbecco's modified Eagles' medium (DMEM, GIBCO) containing 5% fetal bovine serum (FBS: v/v) and 10% heat inactivated horse serum (HS, GIBCO).
RU-486 and NGF were solubilized in dimethylsulfoxide (DMSO). DMSO was used as a control vehicle in all experiments.
For drug exposure experiments in GSrasDN1 PC12 cells, cells were grown to confluence in 75 cm^2 polypropylene culture flasks from Falcon. […]
After the fifteen minutes had elapsed, the tubes were placed immediately on ice to stop any reactions and 200 μl of a protease cocktail (100 μM PMSF (phenylmethanesulfonyl fluoride), 5 μg/ml Leupeptin, 5 μg/ml Aprotinin, and 5)μg/ml Pepstatin) was added to each tube. […] The nuclear fraction was pelletted down at 14,000 rpm for ten min. and 5 μl of cellular homogenate was collected for a protein quantification. […]

[3] = test system: APPs release from E82 mouse L-cells; assay: APPs release from E82 cells lacking glucocorticoid and progesterone receptors; format: cell-based; settings: FIG. 6
[4] = test system: Aβ secretion in K269sw cells transfected with human pHaMDR1 construct; assay: Aβ secretion from K269sw cells transiently transfected with pHaMDR1 (W0-2 western blot); format: cell-based; settings: RU486 0.001-1.0 μM, fifteen minutes; FIG. 11
Method: K269sw cells were cultured in 20 mm Falcon dishes in DMEM containing 10% FBS, and […] geneticin (GIBCO) to about 50% confluence and transiently transfected with the human pHaMDR1 construct using the calcium-phosphate precipitation technique as described above. Cells were replated at a density of 2.0×10^6 cells/dish 8 hours post-transfection on 10 cm petri dishes as described above. To assay for transfection efficiency, the β-gal gene was also co-transfected into the cells. β-gal staining was performed to determine the percentage of cells within each dish which were successfully transfected with the cDNA.
Exposures were performed without resuspending the cells. 10 mL of DMEM containing either control (DMSO), PMA (0.1 μM), or RU486 (0.001 μM, 0.01 μM, 0.1 μM, 1.0 μM), were prepared. DMSO concentrations in the medium were normalized to 0.01% (v/v). The supplemented medium was aspirated and 1 mL of the appropriate medium was added to the cells. […] 5 μL from each sample was collected for protein quantification. […]
SDS-PAGE was used to resolve secreted protein on a 16.5% tris-tricine polyacrylamide gel. […] Aβ was visualized using ECL and quantitation was performed as previously described. […]
Exposures were performed without resuspending the cells. […] 5 μL from each sample was collected for protein quantification. […]

[5] = Homogeneity of the aqueous solution in the concentration effect studies; format: physicochemical; settings: aqueous medium (DMEM with DMSO)
[6] = RU-486, dexamethasone 0.1 μM, progesterone, desmethoxyverapamil 1 μM, FIG. 7, 8

In the case of `C[C@@H]1C[C@H]2[C@@H]3CCC4=CC(=O)C=C[C@]4(C)[C@@]3(F)[C@@H](O)C[C@]2(C)[C@@]1(O)C(=O)CO` [dexamethasone], the “effect on APPs secretion” value [1, 6] is reported as “did not significantly increase”.
In the case of `CC#C[C@]1(O)CC[C@H]2[C@@H]3CCC4=CC(=O)CCC4=C3[C@@H](c3ccc(N(C)C)cc3)C[C@@]21C` [RU-486, 17β-hydroxy-11β-[4-dimethylaminophenyl]-17α prop-l-ynyl estra-4,9-dien-3 one], the “dose dependence of increased APPs secretion” value ([2]; 3.0 to 3000.0 nM RU-486, FIG. 3) is reported as “dose-dependent”, the “effect on APPs” value ([2]; RU-486 3.0 μM, twelve hours exposure, APPs collected for fifteen minutes) is reported as “increased” and the “effect on APPs secretion” value ([1]; 0.1 μM, no drug pretreatment, FIG. 5) is reported as “increased”. For the same compound, the “effect on APPs secretion” value [1, 6] was “significantly increased”, the “effect on APPs release” value [3] was “increases” and the “effect on Aβ secretion” value [4] was “reduces Aβ secretion in fifteen minutes in a dose-dependent manner”. For the same compound, the “concentration above which it did not remain a homogenous aqueous solution” value [5] was ≤ 3000 nM.
